Assay results: article PMC4351203
Residue numbers refer to the chain shown, from its start. These are yes or no findings as the source states them, for the method shown. Binding seen in cells or lysates may run through a third protein. A result given as binding can be weak or reduced; the word gives no strength. For some assays here: Sequences can lack the tags named with a protein.

The chains behind the UniProt entries cited, without tags or fusion partners.
UniProt Q62219: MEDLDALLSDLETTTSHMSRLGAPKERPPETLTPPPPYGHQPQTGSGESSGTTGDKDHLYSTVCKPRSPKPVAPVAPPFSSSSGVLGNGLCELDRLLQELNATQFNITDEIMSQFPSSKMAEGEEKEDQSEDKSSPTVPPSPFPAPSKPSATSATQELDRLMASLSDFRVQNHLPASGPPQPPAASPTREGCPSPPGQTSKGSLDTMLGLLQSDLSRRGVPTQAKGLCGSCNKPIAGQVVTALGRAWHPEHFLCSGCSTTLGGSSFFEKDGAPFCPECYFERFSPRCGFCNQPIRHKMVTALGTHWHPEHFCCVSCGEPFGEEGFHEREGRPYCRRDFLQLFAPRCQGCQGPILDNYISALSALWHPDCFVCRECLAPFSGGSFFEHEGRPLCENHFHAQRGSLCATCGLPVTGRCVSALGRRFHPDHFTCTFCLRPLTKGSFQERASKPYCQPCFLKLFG

Experiments:
Experiment in all cases: co-IP; extracts of HEK293T cells co-expressing FLAG-tagged Git1 proteins with a Myc-tagged partner or YFP-fused Git1; cells treated with 100 μM pervanadate or vehicle for 15 min; anti-FLAG beads; eluted by boiling in SDS sample buffer; Western blot with anti-Myc or anti-GFP
[1] = target: FLAG-tagged Git1-Y9F-Y554 (rat) (UniProt Q9Z272)
[2] = target: T1, FLAG-tagged Git1 (WT) (rat) (UniProt Q9Z272)
T1 sequence: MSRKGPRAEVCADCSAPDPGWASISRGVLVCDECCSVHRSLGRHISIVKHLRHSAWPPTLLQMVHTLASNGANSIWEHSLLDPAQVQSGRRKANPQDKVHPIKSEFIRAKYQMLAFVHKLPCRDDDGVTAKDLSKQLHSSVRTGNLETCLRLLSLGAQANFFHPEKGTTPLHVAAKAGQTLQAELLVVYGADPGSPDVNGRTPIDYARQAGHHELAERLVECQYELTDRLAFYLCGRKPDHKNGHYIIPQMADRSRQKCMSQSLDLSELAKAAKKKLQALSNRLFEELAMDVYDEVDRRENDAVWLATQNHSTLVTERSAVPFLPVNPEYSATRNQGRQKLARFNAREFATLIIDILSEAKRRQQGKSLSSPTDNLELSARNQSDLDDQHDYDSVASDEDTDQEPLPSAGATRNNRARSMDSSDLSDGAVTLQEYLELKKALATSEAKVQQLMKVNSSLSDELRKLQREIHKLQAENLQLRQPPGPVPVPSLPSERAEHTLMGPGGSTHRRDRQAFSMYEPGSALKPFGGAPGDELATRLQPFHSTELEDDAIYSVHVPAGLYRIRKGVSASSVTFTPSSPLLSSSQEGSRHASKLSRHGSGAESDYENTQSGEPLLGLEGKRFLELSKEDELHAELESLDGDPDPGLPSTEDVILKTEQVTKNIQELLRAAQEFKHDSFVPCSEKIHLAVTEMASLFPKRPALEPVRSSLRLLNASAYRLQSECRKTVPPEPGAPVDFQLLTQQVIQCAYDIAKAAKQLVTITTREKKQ

[3] = target: T2, FLAG-tagged Git1-Y554D (rat) (UniProt Q9Z272)
T2 sequence: T1 sequence with Y554D

[4] = target: T3, FLAG-tagged Git1-Y554F (rat) (UniProt Q9Z272)
T3 sequence: T1 sequence with Y554F

Myc-tagged Hic-5 (from UniProt Q62219 1-461)
binding [1]: binds

Myc-tagged paxillin (from UniProt Q8VI36-2)
binding [2]: binds | binding [3]: binds | binding [4]: binds | binding [1]: binds
